Data reported in article PMC8191293.
Substitutions are numbered along the chain they refer to. Read-outs that look alike come from different tables or passages of the source. Results are given in words; binding and its absence hold for the method and conditions named. Binding seen in cells or lysates may run through a third protein. A yes stands for co-enrichment or nearness to the bait. Other partners may have been found. For some assays here: A no says only that the protein was not detected with the bait. Tags and fused reporters may be left off the sequences shown. Each block holds one molecule with its values, some of them ahead of it.

Amino acid sequences for entries named in this document (tags omitted). Residues count along the entry.
UniProt P61619: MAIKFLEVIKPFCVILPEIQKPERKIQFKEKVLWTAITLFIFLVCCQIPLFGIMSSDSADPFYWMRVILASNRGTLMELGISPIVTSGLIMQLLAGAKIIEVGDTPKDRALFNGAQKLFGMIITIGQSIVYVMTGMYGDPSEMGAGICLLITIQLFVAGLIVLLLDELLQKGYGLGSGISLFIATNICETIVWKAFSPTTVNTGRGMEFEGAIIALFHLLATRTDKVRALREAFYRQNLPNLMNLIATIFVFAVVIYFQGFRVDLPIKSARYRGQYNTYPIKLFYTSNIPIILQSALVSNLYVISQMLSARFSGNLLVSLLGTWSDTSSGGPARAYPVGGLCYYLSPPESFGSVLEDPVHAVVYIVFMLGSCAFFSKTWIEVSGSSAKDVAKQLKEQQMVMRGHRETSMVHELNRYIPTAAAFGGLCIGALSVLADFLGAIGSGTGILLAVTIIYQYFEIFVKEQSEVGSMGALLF
UniProt Q9NYU2, residues 43-1555: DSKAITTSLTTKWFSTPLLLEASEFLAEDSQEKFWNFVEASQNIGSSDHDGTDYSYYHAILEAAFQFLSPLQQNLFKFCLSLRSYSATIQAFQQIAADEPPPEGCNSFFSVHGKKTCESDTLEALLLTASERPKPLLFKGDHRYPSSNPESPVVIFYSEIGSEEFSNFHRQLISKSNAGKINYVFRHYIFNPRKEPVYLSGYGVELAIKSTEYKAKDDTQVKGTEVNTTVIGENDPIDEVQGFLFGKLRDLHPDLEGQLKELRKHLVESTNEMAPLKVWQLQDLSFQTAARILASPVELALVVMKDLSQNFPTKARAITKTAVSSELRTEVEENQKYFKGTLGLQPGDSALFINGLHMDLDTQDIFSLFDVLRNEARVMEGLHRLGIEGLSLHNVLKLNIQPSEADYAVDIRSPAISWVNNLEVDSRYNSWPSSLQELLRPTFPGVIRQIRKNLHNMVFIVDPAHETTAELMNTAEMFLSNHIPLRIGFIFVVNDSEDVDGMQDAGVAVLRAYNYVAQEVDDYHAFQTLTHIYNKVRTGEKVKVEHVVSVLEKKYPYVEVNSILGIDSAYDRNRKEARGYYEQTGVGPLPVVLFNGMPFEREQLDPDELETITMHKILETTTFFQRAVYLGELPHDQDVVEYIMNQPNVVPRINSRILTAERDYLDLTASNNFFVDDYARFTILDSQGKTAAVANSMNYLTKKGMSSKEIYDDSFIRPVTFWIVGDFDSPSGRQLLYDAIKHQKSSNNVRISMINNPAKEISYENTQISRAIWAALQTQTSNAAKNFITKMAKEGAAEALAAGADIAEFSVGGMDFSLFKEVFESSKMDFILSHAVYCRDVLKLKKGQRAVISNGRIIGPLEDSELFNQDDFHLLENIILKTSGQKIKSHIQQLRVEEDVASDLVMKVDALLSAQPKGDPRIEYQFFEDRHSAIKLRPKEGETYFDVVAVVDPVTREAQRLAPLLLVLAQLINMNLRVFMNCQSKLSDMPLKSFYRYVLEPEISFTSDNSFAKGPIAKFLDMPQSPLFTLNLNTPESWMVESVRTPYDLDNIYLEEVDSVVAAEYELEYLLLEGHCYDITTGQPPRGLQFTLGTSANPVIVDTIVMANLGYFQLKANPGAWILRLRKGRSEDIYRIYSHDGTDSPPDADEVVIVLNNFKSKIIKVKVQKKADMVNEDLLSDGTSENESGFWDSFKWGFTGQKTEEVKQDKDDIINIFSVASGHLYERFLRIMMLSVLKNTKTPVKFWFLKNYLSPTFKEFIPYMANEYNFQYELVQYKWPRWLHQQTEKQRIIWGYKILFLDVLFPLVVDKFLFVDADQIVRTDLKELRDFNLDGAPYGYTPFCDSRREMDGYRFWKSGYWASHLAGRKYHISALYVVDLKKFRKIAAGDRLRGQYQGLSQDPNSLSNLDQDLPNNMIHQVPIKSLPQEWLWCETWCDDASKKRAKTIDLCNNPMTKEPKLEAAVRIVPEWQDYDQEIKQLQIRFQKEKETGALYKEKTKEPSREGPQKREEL
UniProt P27824, residues 21-592: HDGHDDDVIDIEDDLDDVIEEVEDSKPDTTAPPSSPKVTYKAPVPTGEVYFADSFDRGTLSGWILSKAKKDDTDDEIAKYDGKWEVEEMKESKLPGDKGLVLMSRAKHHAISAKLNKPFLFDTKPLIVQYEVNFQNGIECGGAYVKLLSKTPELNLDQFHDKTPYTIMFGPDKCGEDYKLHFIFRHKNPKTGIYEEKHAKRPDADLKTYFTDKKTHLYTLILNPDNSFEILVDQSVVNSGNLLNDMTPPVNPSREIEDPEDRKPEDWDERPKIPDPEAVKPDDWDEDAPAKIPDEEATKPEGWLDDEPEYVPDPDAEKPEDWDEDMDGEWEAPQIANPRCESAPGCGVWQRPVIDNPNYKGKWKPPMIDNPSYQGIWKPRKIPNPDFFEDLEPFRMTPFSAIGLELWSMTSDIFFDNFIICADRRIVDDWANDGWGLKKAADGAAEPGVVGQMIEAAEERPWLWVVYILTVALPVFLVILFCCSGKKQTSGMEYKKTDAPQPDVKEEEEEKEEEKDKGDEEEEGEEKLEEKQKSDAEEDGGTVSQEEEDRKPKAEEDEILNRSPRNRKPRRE

How the values were obtained:
Experiment in all cases: affinity purification with mass spectrometry; myc-tagged PMP22 (WT, N41Q or L16P) immunopurified from HEK293 lysate (0.3% CHAPS lysis buffer, pH 7.8) on anti-myc magnetic beads, 90 min at 4 °C; TMT-labelled LC-MS/MS; mock: cells expressing untagged PMP22; six biological replicates
[1] = biological target: T1, L16P PMP22 (Charcot-Marie-Tooth disease variant), myc-tagged (human) (UniProt Q01453)
T1 sequence (chain, N-linked glycan at N41 (80 ± 2% of L16P PMP22 was glycosylated in HEK293 cells)): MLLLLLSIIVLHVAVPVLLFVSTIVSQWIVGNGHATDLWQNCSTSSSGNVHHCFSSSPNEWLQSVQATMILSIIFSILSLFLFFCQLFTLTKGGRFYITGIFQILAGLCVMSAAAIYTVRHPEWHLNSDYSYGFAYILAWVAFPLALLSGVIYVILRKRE

[2] = biological target: T2, N41Q PMP22 (glycosylation-deficient), myc-tagged (human) (UniProt Q01453)
T2 sequence: T1 sequence (chain, N-linked glycan at N41 (80 ± 2% of L16P PMP22 was glycosylated in HEK293 cells)) with P16L, N41Q

[3] = biological target: T1, L16P PMP22 (Charcot-Marie-Tooth disease variant), myc-tagged (human); remark: listed apart in the source

- binding [3]: binds
B2: STT3A, catalytic subunit of oligosaccharyltransferase OST-A (enzyme, UniProt P46977 1-705)
chain: MTKFGFLRLSYEKQDTLLKLLILSMAAVLSFSTRLFAVLRFESVIHEFDPYFNYRTTRFLAEEGFYKFHNWFDDRAWYPLGRIIGGTIYPGLMITSAAIYHVLHFFHITIDIRNVCVFLAPLFSSFTTIVTYHLTKELKDAGAGLLAAAMIAVVPGYISRSVAGSYDNEGIAIFCMLLTYYMWIKAVKTGSICWAAKCALAYFYMVSSWGGYVFLINLIPLHVLVLMLTGRFSHRIYVAYCTVYCLGTILSMQISFVGFQPVLSSEHMAAFGVFGLCQIHAFVDYLRSKLNPQQFEVLFRSVISLVGFVLLTVGALLMLTGKISPWTGRFYSLLDPSYAKNNIPIIASVSEHQPTTWSSYYFDLQLLVFMFPVGLYYCFSNLSDARIFIIMYGVTSMYFSAVMVRLMLVLAPVMCILSGIGVSQVLSTYMKNLDISRPDKKSKKQQDSTYPIKNEVASGMILVMAFFLITYTFHSTWVTSEAYSSPSIVLSARGGDGSRIIFDDFREAYYWLRHNTPEDAKVMSWWDYGYQITAMANRTILVDNNTWNNTHISRVGQAMASTEEKAYEIMRELDVSYVLVIFGGLTGYSSDDINKFLWMVRIGGSTDTGKHIKENDYYTPTGEFRVDREGSPVLLNCLMYKMCYYRFGQVYTEAKRPPGFDRVRNAEIGNKDFELDVLEEAYTTEHWLVRIYKVKDLDNRGLSRT

- binding [3]: binds
B3: ZMPSTE24 (enzyme, UniProt O75844 1-475)
chain: MGMWASLDALWEMPAEKRIFGAVLLFSWTVYLWETFLAQRQRRIYKTTTHVPPELGQIMDSETFEKSRLYQLDKSTFSFWSGLYSETEGTLILLFGGIPYLWRLSGRFCGYAGFGPEYEITQSLVFLLLATLFSALTGLPWSLYNTFVIEEKHGFNQQTLGFFMKDAIKKFVVTQCILLPVSSLLLYIIKIGGDYFFIYAWLFTLVVSLVLVTIYADYIAPLFDKFTPLPEGKLKEEIEVMAKSIDFPLTKVYVVEGSKRSSHSNAYFYGFFKNKRIVLFDTLLEEYSVLNKDIQEDSGMEPRNEEEGNSEEIKAKVKNKKQGCKNEEVLAVLGHELGHWKLGHTVKNIIISQMNSFLCFFLFAVLIGRKELFAAFGFYDSQPTLIGLLIIFQFIFSPYNEVLSFCLTVLSRRFEFQADAFAKKLGKAKDLYSALIKLNKDNLGFPVSDWLFSMWHYSHPPLLERLQALKTMKQH

Continued, molecule first:

Molecule: Sec61α subunit of the translocon (from UniProt P61619 1-476)
- binding [1]: binds

Molecule: UDP-glucose:glycoprotein glucosyltransferase 1 (from UniProt Q9NYU2 43-1555) (enzyme)
- binding [1]: no binding
- binding [2]: no binding

Molecule: calnexin (from UniProt P27824 21-592)
- binding [1]: binds
- binding [2]: binds weakly

B1: HM13 (enzyme, UniProt Q8TCT9 1-377)
chain: MDSALSDPHNGSAEAGGPTNSTTRPPSTPEGIALAYGSLLLMALLPIFFGALRSVRCARGKNASDMPETITSRDAARFPIIASCTLLGLYLFFKIFSQEYINLLLSMYFFVLGILALSHTISPFMNKFFPASFPNRQYQLLFTQGSGENKEEIINYEFDTKDLVCLGLSSIVGVWYLLRKHWIANNLFGLAFSLNGVELLHLNNVSTGCILLGGLFIYDVFWVFGTNVMVTVAKSFEAPIKLVFPQDLLEKGLEANNFAMLGLGDVVIPGIFIALLLRFDISLKKNTHTYFYTSFAAYIFGLGLTIFIMHIFKHAQPALLYLVPACIGFPVLVALAKGEVTEMFSYEESNPKDPAAVTESKEGTEASASKGLEKKEK
- binding [3]: binds
